This note sets out measurements from PMC13378946.

Sequences of proteins named here, by UniProt entry; tags and fusion partners are left off. Residues count along the entry.
UniProt Q49AH0, residues 25-187: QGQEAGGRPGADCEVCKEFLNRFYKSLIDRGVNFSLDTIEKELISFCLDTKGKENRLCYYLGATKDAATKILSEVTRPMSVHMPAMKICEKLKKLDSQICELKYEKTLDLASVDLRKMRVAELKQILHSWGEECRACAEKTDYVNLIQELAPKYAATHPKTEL
UniProt Q91Y86: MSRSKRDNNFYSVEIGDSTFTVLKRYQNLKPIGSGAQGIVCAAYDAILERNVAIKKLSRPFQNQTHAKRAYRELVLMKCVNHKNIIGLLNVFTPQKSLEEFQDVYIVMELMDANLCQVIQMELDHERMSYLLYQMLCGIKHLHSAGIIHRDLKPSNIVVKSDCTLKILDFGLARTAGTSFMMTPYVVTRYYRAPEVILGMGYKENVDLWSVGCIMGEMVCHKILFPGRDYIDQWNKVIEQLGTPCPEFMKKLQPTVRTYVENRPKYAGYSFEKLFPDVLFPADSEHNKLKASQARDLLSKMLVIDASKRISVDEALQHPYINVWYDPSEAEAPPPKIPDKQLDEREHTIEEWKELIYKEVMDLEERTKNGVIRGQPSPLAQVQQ

In assay [1] the target is T1, Cerebral dopamine neurotrophic factor (endogenous) (mouse (endogenous in primary microglia)) (UniProt Q8CC36).
T1 sequence: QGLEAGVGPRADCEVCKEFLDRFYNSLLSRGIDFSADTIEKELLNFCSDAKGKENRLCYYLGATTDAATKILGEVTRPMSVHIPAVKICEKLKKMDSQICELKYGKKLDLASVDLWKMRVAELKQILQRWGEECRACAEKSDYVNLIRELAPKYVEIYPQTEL
Kind of assay: co-IP; lysate of primary mouse microglia (blank control or LPS 1 ug/mL); precleared with IgG and A/G agarose beads; CDNF primary antibody with A/G agarose beads, 12 hours at 4°C; immunoblot with JNK1 and JNK2 antibodies. A general note: A western blot detects proteins with antibodies after separation by electrophoresis.

In assay [2] the target is Cerebral dopamine neurotrophic factor (exogenous, Peprotech) (UniProt Q49AH0). Kind of assay: co-IP; primary mouse microglia pretreated with exogenous CDNF (200 ng/mL, 1 hour), then LPS for 24 hours; lysate precipitated with CDNF primary antibody and A/G agarose beads, 12 hours at 4°C; immunoblot with JNK1 and JNK2 antibodies; only the target purified.

Results are given in words; binding and its absence hold for the method and conditions named. In cells and extracts the contact can be indirect. Some entries that bind do so weakly or less than the wild type.

With “c-Jun N-terminal kinase 1 (from UniProt Q91Y86 1-384) (enzyme)”, the binding result in assay [1] and in assay [2] was “binds” each time.

Take “c-Jun N-terminal kinase 2 (from UniProt Q9WTU6 1-423) (enzyme)”: the binding entry in assay [1] and in assay [2] was “no binding” in each case.
